{
  "source": "PubChem BioAssay AID504648",
  "about": "(National Center for Advancing Translational Sciences (NCATS), 2011)",
  "note": "The whole screen tested about 390,000 compounds, of which about 610 (0.16%) were called active. Inconclusive means that the source gave no clear call. Such entries were picked first, then a sample of the others. Calls come from the whole dose curve; as a rule, active = well fitted inhibition curve with a large enough effect; inconclusive = small, poorly fitted or top-dose-only effect, or effect the other way, or another doubt; inactive = no such curve, though single readings can be large or run the other way. Potencies beside an inconclusive call are fits to weak or partial responses and may not hold up. Potency is the fitted concentration of half-maximal effect.",
  "data": [
    {"assay": "Nrf2 qHTS screen for inhibitors: counterscreen for cytotoxicity", "conditions": "A549 ARE-Fluc cells, CellTiter-Fluor viability, 18-24 h; series mostly up to 46 µM", "how_it_was_run": "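A549 ARE-Fluc cells in 5% FBS OPTI-MEM, 5000 cells/well, rested 2 h then exposed to compounds in concentration-response for 18-24 h at 37 °C. Viability by CellTiter-Fluor fluorescence (Ex 405/Em 525) after 30 min; luciferase luminescence (BugLite, 15 min, RT) read afterwards.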", "values": [
      {"smiles": "COc1ccc(N2CCN(Cc3nc4c(c(=O)[nH]c(=O)n4C)n3CCCc3ccccc3)CC2)cc1", "Potency": "inactive"},
      {"smiles": "NC1=NC(=Nc2ccccc2)c2ccccc21", "Potency": "inconclusive: 29.1 µM [falling, partial curve, poor fit]"},
      {"smiles": "Cc1cccc2sc(N(CCCN(C)C)C(=O)CCc3ccccc3)nc12", "Potency": "inconclusive: 29.1 µM [falling, single point]"},
      {"smiles": "CCCC(c1nnnn1C(C)(C)CC)N(Cc1ccco1)Cc1cc2ccc(OC)cc2[nH]c1=O", "note": "(stereo not drawn)", "Potency": "inconclusive: 29.1 µM [falling, single point]"},
      {"smiles": "O=C(COc1ccc2ccccc2c1CN1CCOCC1)N1CCc2ccccc21", "Potency": "inconclusive: 29.1 µM [falling, single point]"},
      {"smiles": "Oc1ccc(/C=N/Nc2nc(-c3ccc(Cl)cc3)cc(C(F)(F)F)n2)cc1", "Potency": "inconclusive: 25.9 µM [falling, single point]"},
      {"smiles": "Cc1c(C(=O)N/N=C/c2ccccc2)sc(=S)n1C", "Potency": "inactive"},
      {"smiles": "Cc1nn(-c2ccccc2)c(C)c1/C=N/NC(=O)CSc1nc2ccccc2c(=O)n1-c1ccccc1", "Potency": "inconclusive: 10.3 µM [falling, partial curve, poor fit]"},
      {"smiles": "COc1cccc(C(=O)Nc2ccc(N3CCN(C(=O)c4cccs4)CC3)cc2)c1", "Potency": "inconclusive: 10.3 µM [falling, partial curve, poor fit]"},
      {"smiles": "CCCN(CCC)S(=O)(=O)c1ccc(C(=O)Nc2cccnc2)cc1", "Potency": "inconclusive: 25.9 µM [activator, single point]"},
      {"smiles": "NC(=O)CSc1nnc(Cc2ccc3c(c2)OCO3)o1", "Potency": "inactive"},
      {"smiles": "Oc1ccc(Br)cc1C1C=C(c2ccc3c(c2)OCO3)NC(c2ccc(Br)cc2)N1", "note": "(stereo not drawn)", "Potency": "inactive"},
      {"smiles": "COc1ccccc1NC(=O)Cn1cnc2sc(C(=O)Nc3cc(OC)c(OC)c(OC)c3)c(C)c2c1=O", "Potency": "inactive"},
      {"smiles": "CCCCN(C(=O)C1CCC(CNS(=O)(=O)c2cccc3nsnc23)CC1)c1ccccc1", "note": "(stereo not drawn)", "Potency": "inactive"},
      {"smiles": "Cc1cc2oc(=O)c(CC(=O)NCCc3ccccc3F)c(C)c2c2occ(C(C)(C)C)c12", "Potency": "inactive"},
      {"smiles": "Cc1ccc(C(=O)N/N=C/c2nc3ccccc3n2C)cc1", "Potency": "inconclusive: 23.1 µM [falling, partial curve, poor fit]"},
      {"smiles": "CC(=O)O[C@@H](C[C@@H](C)C1=C2C[C@H](O)C3[C@@]4(C)CCC(=O)C(C)(C)C4CC[C@]3(C)[C@@]2(C)CC1)[C@H]1OC1(C)C", "note": "(stereo partly drawn)", "Potency": "inconclusive: 18.4 µM [falling, partial curve, poor fit]"},
      {"smiles": "COc1ccc(N2CCN(C(CNS(C)(=O)=O)c3ccco3)CC2)cc1", "note": "(stereo not drawn)", "Potency": "inactive"},
      {"smiles": "CCc1ccc(CNC(=O)C2CCCN(c3nnc(C)c4c(C)n(-c5ccccc5)nc34)C2)cc1", "note": "(stereo not drawn)", "Potency": "inconclusive: 18.4 µM [falling, single point]"},
      {"smiles": "CCCCCCN1Cc2ccccc2C1", "Potency": "inactive"},
      {"smiles": "CCN1CCN(Cc2ccc(NC(=O)c3ccc(C)c(/C=C/c4cnc(Nc5cc(N6CCNCC6)nc(C)n5)cn4)c3)cc2C(F)(F)F)CC1", "Potency": "inconclusive: 18.4 µM [falling, single point]"},
      {"smiles": "Cc1ccc(NC(=O)C2CCCC2)cc1Cl", "Potency": "inactive"},
      {"smiles": "O=C(CCN1CCN(c2ccccc2)CC1)NNC(=O)Cc1c(F)cccc1Cl", "Potency": "inconclusive: 29.1 µM [falling, single point]"},
      {"smiles": "COc1ccc2c(c1)OC(O)(C(F)(F)C(F)F)CC2=O", "note": "(stereo not drawn)", "Potency": "inconclusive: 29.1 µM [falling, single point]"},
      {"smiles": "Cc1cc2n(c(=O)c1C#N)CCCN2c1cccc(Cl)c1", "Potency": "inconclusive: 1.84 µM [falling, partial curve, poor fit]"},
      {"smiles": "CC(C)(C)c1ccc(CNc2ccc([N+](=O)[O-])cn2)cc1", "Potency": "inconclusive: 20.6 µM [falling, single point]"},
      {"smiles": "CCOC(=O)C(C)Sc1nc2ccccc2c(=O)n1CC", "note": "(stereo not drawn)", "Potency": "inconclusive: 23.1 µM [activator, partial curve, poor fit]"},
      {"smiles": "O=c1cc(N2CCN(c3cccc(Cl)c3)CC2)[nH]c(=O)n1C1CCCCC1", "Potency": "inconclusive: 5.17 µM [falling, full curve]"},
      {"smiles": "O=C(C1=C(O)C(=O)N(CC2CCCO2)C1c1ccc(Cl)cc1Cl)c1ccco1", "note": "(stereo not drawn)", "Potency": "inactive"},
      {"smiles": "O=C(CSc1nc(-c2cccc(F)c2)[nH]c1-c1ccccc1)Nc1ccc2c(c1)OCO2", "Potency": "inconclusive: 23.1 µM [falling, single point]"},
      {"smiles": "COC(=O)c1cc2sc(Cl)cc2n1CC(=O)Nc1cccc(SC)c1", "Potency": "inconclusive: 32.6 µM [falling, partial curve, poor fit]"},
      {"smiles": "O=C(CNC(=O)c1ccccc1Cl)N/N=C/c1ccc([N+](=O)[O-])s1", "Potency": "inconclusive: 29.1 µM [falling, single point]"},
      {"smiles": "CC(C)(C)NS(=O)(=O)c1ccc(NC(=O)C(Sc2ccccc2)c2ccccc2)cc1", "note": "(stereo not drawn)", "Potency": "inconclusive: 14.6 µM [falling, partial curve, poor fit]"},
      {"smiles": "Cc1cc(N2CCN(C(=O)/C=C/C(=O)O)CC2)c2ccccc2n1", "Potency": "inconclusive: 14.6 µM [falling, partial curve]"},
      {"smiles": "N=c1c(S(=O)(=O)c2ccc(Br)cc2)cc2c(=O)n3ccccc3nc2n1Cc1ccco1", "Potency": "inconclusive: 2.06 µM [activator, single point]"},
      {"smiles": "O=S(=O)(NC1CC1)c1ccc(S(=O)(=O)N2CCCC3(CCCCC3)C2)cc1", "Potency": "inconclusive: 25.9 µM [falling, partial curve, poor fit]"},
      {"smiles": "COc1ccc(NC(=O)/C(Cl)=C(/Cl)S(=O)(=O)Cc2ccc(C)cc2)cn1", "Potency": "inconclusive: 23.1 µM [falling, partial curve]"},
      {"smiles": "Cc1ccc(CN2CC(C(=O)N3CCN(S(=O)(=O)c4ccc(C(C)C)cc4)CC3)CC2=O)cc1", "note": "(stereo not drawn)", "Potency": "inconclusive: 16.4 µM [falling, partial curve, poor fit]"},
      {"smiles": "COc1cc(Cl)ccc1OCc1cc(C(=O)N(C)Cc2cccc3cnccc23)no1", "Potency": "inactive"},
      {"smiles": "COc1cc(Cl)c(C)cc1NC(=O)c1cnc(N2CCCCC2)c2ccccc12", "Potency": "inactive"},
      {"smiles": "COc1cc(/C=C(/C(=O)c2cccs2)c2nc3ccccc3[nH]2)ccc1O", "Potency": "inconclusive: 18.4 µM [falling, single point]"},
      {"smiles": "C#CCOCCOCCOCCNc1nc(N2CCN(C(=O)CCCCCCCCCCNC(=O)[C@H](CCCCN)n3cc(CCO)nn3)CC2)nc(N2CCN(C(=O)CCCCCCCCCCNC(=O)[C@H](CCCCN)n3cc(C[C@@H](C)CC)nn3)CC2)n1", "Potency": "inconclusive: 23.1 µM [falling, single point]"},
      {"smiles": "COc1ccc(OC)c(NC(=O)CSc2nncc3ccccc23)c1", "Potency": "inconclusive: 29.1 µM [activator, partial curve, poor fit]"},
      {"smiles": "CCOC(=O)C1Nc2ccc(C(F)(F)F)cc2C2c3ccccc3CC12", "note": "(stereo not drawn)", "Potency": "inconclusive: 29.1 µM [falling, single point]"},
      {"smiles": "O=C(CN1CCOCC1)NCCC12CC3CC(CC(C3)C1)C2", "Potency": "inconclusive: 20.6 µM [falling, partial curve, poor fit]"},
      {"smiles": "CC(C)(c1ccccc1)c1ccc(OCC(O)CNC2CCN(Cc3ccccc3)CC2)cc1", "note": "(stereo not drawn)", "Potency": "inconclusive: 32.6 µM [falling, partial curve, poor fit]"},
      {"smiles": "O=C(c1ccccc1)N1c2nc(-c3ccco3)nn2C2(CCCCC2)[C@@H]2CCCC[C@@H]21", "Potency": "inactive"},
      {"smiles": "Cc1nc(NC(=O)COC(=O)c2cc3c(s2)CCC(C)C3)c(Cl)cc1Cl", "note": "(stereo not drawn)", "Potency": "inactive"},
      {"smiles": "COc1ccc2nc3c(cc2c1)c(NC(=O)C1CCCO1)nn3CC(C)C", "note": "(stereo not drawn)", "Potency": "inactive"},
      {"smiles": "CCN(CC)CCn1c2ccccc2c2cnc(N)c(C#N)c21", "Potency": "inconclusive: 16.4 µM [falling, single point]"},
      {"smiles": "COc1cccc(NC(=O)Cn2c(=O)n(-c3ccccc3)c(=O)c3oc4ccccc4c32)c1", "Potency": "inconclusive: 29.1 µM [falling, single point]"},
      {"smiles": "CCn1ncc(C2=NOC(C(=O)Nc3ccc(C)cc3)C2)c1C", "note": "(stereo not drawn)", "Potency": "inactive"},
      {"smiles": "O=C(Nc1ccncc1)C1C(=O)c2ccccc2N(Cc2ccccc2)C1=O", "note": "(stereo not drawn)", "Potency": "inactive"},
      {"smiles": "O=C(CCN1C(=O)c2ccccc2C1=O)N1CCN(C2c3ccccc3-c3ccccc32)CC1", "Potency": "inconclusive: 29.1 µM [activator, partial curve, poor fit]"},
      {"smiles": "CC1(O)CC(c2ccc(Cl)cc2)=NN1C(=O)c1ccc([N+](=O)[O-])cc1", "note": "(stereo not drawn)", "Potency": "inconclusive: 20.6 µM [falling, single point]"},
      {"smiles": "CCOc1ccc(-c2c(C)nn3c(C)c(C(=O)NCCc4ccc(C)cc4)cnc23)cc1OCC", "Potency": "inactive"},
      {"smiles": "CCc1c(C)sc2c1CCN(Cc1ccccc1F)C2c1ccccc1", "note": "(stereo not drawn)", "Potency": "inconclusive: 20.6 µM [falling, single point]"},
      {"smiles": "O=C(Nc1ccncc1)c1ccc(Cl)c(S(=O)(=O)N2CCc3ccccc32)c1", "Potency": "inconclusive: 16.4 µM [falling, partial curve, poor fit]"},
      {"smiles": "COc1ccc(-c2csc(NC(=O)Cc3cc(OC)c(OC)c(OC)c3)n2)cc1OC", "Potency": "inconclusive: 20.6 µM [falling, single point]"},
      {"smiles": "O=C(CCN1C(=O)COc2ccccc21)NCCCN1CCN(c2ccccc2F)CC1", "Potency": "inconclusive: 11.6 µM [activator, partial curve, poor fit]"},
      {"smiles": "CC(C)(C)Nc1nc(SCC(=O)Nc2ccccc2Cl)nc(N2CCOCC2)n1", "Potency": "inconclusive: 25.9 µM [falling, single point]"},
      {"smiles": "COc1cccc(OC)c1C(=O)Nc1cc(C)nn1-c1nc2ccccc2[nH]1", "Potency": "inconclusive: 29.1 µM [falling, single point]"},
      {"smiles": "FC(F)(F)c1ccc(N2CCN(c3cc(-c4ccccc4)nc4ncnn34)CC2)nc1", "Potency": "inconclusive: 11.6 µM [falling, partial curve, poor fit]"}
    ]}
  ]
}
